Source: patent publication US10239884B2, “Coelenterazine compounds and uses thereof” (KEIO UNIVERSITY, priority 2017, dated 2019)

Test system: ALuc34
Experiment: Bioluminescence spectrum, ALuc system
Format: biochemical
Details: ATTO LumiFL

[N-]=[N+]=NCCOc1ccc(-c2cn3c(=O)c(Cc4ccc(O)cc4)nc-3c(Cc3ccccc3)[nH]2)cc1 [Example 6-Al2N3-CTZ]
ALuc34 maximum luminescence intensity (nm): 503 nm

Oc1ccc(Cc2nc3c(Cc4ccccc4)nc(-c4ccc(O)cc4)cn3c2O)cc1 [Native-CTZ, coelenterazine]
ALuc34 maximum luminescence intensity (nm): 500 nm
